Data reported in US9403882B2, “Sulfation of Wnt pathway proteins” (priority 2010, dated 2016).
Results are given in words; binding and its absence hold for the method and conditions named. Some results given as binding are weak or reduced against the parent protein; the word gives no strength.

By UniProt entry, the sequences of proteins in these tests, tags left out. Residues count along the entry.
UniProt O75197, residues 32-643: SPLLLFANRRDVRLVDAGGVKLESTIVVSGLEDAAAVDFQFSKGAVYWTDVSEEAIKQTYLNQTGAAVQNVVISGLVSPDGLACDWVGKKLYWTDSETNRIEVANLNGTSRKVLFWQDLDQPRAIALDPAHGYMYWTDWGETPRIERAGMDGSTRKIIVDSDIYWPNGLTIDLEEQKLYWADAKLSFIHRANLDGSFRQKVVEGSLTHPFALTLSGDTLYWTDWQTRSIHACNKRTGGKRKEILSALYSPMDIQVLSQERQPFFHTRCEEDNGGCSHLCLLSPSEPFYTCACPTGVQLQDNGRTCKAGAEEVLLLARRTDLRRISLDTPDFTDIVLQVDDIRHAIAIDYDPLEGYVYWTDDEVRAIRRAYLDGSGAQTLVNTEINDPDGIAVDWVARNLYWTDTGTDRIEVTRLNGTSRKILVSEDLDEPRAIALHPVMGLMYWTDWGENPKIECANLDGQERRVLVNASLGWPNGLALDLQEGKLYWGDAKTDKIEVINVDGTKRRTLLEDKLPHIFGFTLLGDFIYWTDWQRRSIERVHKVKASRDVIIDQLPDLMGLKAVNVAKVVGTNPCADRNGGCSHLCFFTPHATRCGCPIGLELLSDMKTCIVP
UniProt Q9BQB4, residues 24-213: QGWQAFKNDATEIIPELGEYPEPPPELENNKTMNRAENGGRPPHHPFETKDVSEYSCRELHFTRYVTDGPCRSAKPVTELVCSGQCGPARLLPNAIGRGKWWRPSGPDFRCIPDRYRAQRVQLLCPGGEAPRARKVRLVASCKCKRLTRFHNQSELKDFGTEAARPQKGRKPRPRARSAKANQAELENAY
UniProt Q99P68, residues 24-211: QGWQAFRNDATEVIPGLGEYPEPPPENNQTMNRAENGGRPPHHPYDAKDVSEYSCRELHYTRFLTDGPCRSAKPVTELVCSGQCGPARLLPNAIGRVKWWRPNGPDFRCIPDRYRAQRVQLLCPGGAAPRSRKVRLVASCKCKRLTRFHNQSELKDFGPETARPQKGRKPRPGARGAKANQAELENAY

These substances were tested against LRP5R1/2-AP (LRP5 extracellular domains 1 and 2 fused to alkaline phosphatase) (UniProt O75197) (assay: plate-coated sclerostin, LRP5R1/2AP conditioned medium, alkaline phosphatase luminescence).

binding, binds:
Human sclerostin produced in High Five insect cells treated with 1 mM chlorate ("Unmodified", unsulfated) (from UniProt Q9BQB4 24-213) (ligand)
Human sclerostin (R&D Systems) treated in vitro with human TPST1 and PAPS (Example 1) (from UniProt Q9BQB4 24-213) (ligand)
Mouse sclerostin, untreated (from UniProt Q99P68 24-211) (ligand)
Human sclerostin produced in High Five insect cells without chlorate ("Normal", sulfated) (from UniProt Q9BQB4 24-213) (ligand)
Mouse sclerostin treated in vitro with TPST (from UniProt Q99P68 24-211) (ligand)
Chlorate-treated human sclerostin subsequently treated with TPST-1 and PAPS ("In vitro modified") (from UniProt Q9BQB4 24-213) (ligand)
